PMC5500810
Results are given in words; binding and its absence hold for the method and conditions named. Some results given as binding are weak or reduced against the parent protein; the word gives no strength.

The chains behind the UniProt entries cited, without tags or fusion partners. Residues count along the entry.
UniProt P54764, residues 22-203: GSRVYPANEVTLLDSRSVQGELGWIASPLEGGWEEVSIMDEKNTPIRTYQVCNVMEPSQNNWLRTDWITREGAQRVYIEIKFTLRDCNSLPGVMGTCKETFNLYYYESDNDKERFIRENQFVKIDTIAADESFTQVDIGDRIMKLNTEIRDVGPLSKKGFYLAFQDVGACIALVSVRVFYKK
UniProt P20827, residues 19-182: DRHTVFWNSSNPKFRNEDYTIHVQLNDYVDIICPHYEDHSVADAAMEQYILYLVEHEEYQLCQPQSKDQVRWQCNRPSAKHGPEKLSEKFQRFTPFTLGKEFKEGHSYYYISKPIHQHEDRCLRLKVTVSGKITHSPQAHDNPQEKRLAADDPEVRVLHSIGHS
UniProt P52799, residues 28-229: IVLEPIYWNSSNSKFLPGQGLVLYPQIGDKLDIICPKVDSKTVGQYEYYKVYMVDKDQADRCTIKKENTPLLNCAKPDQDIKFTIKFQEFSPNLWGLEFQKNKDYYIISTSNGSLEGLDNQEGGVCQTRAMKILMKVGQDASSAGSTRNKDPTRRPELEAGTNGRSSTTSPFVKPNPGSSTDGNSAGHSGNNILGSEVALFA

Target: EphA4 ligand-binding domain (human, amino acids 22-203) (human) (UniProt P54764)
Assay: AlphaScreen or HTRF; competition: biotinylated EphA4 LBD (10 nM) preincubated 1 h with increasing Nb, then Fc-tagged ephrin (3 or 10 nM); anti-IgG acceptor and streptavidin donor beads; 50 mM Hepes, 100 mM NaCl, 0.1% Triton, 0.1% BSA; room temperature; both purified

Row | binding | Substance
1 | binds | ephrin-A1 (Fc-tagged; R&D Systems) (from UniProt P20827 19-182) (Fc fusion)
2 | binds | ephrin-B2 (Fc-tagged; R&D Systems) (from UniProt P52799 28-229) (Fc fusion)
